# According to US5910482A (priority 1996, dated 1999):
# Test system: pregnant rats
# Assay: Delivery day and pup survival after L-NAME infusion to pregnant rats; effect of CGRP on fetal survival
# Type: in vivo
# Settings: L-NAME 50/mg/day infusion to pregnant rats; 5 animals
smiles,measurement,value
"COC(=O)[C@@H](N)CCCNC(=N)N[N+](=O)[O-] [L-NAME, N^G -nitro-L-arginine methyl ester]",Day of Delivery,22 ± 0
same,Total # of pups,55

# Some results come without the dose or concentration used.
